# Assay results

The results are deposited in PubChem (AID1918966; NCATS, 2023).

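JJN3 multiple myeloma cell line exposed to library drugs for 48 hours, with viability measured as ATP-driven luminescence using CellTiter-Glo.
Each compound was run as a dilution series spanning about 3.1e-05 to 92 µM, mostly topping out at 45.8 µM.
Potency is the fitted AC50, the concentration giving half of the maximal cell-killing effect; a lower value means a more potent compound.
Calls come from NCATS curve class and activity score: scores of 40 to 100 are active, 1 to 39 inconclusive (weak, poorly fitted or single-point curves), and class 4 inactive.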

Values are in µM.
All entries here are filed as inconclusive.
These entries are mostly ones the record files as inconclusive; other results of the assay are not listed here.
A potency from a partial, single-point or poor curve is only a rough figure.
The first word of each remark tells which way the curve ran; it can be opposite to the aim of the assay.
Activity scores are not listed here.

| # | compound | potency (µM) | remark |
|---|---|---|---|
| 1 | `CN(C1CCc2c(c3ccccc3n2CC(=O)O)C1)S(=O)(=O)c1ccc(F)cc1` (stereo not drawn) | 23.48 | cytotoxic, single point |
| 2 | `CN1[C@@H]2CCC[C@@H]1CC(NC(=O)c1nn(C)c3ccccc13)C2` (stereo partly drawn) | 3.317 | cytotoxic, full curve, poor fit |
| 3 | `CC(=O)Oc1ccccc1C(=O)O` | 2.957 | cytotoxic, full curve, poor fit |
| 4 | `O=C1Cc2cc(CCN3CCN(c4nsc5ccccc45)CC3)c(Cl)cc2N1` | 33.17 | cytotoxic, single point |
| 5 | `CCn1cc(C(=O)O)c(=O)c2cc(F)c(N3CCNCC3)cc21` | 6.619 | cytotoxic, partial curve, poor fit |
| 6 | `CCC(C)(Oc1ccc(C2(c3ccc(OC(C)(CC)C(=O)O)cc3)CCCCC2)cc1)C(=O)O` (stereo not drawn) | 2.635 | cytotoxic, full curve, poor fit |
| 7 | `COc1cc(Nc2ncc(F)c(Nc3ccc4c(n3)NC(=O)C(C)(C)O4)n2)cc(OC)c1OC` | 20.93 | cytotoxic, partial curve, poor fit |
| 8 | `COc1ccc(CCC(=O)c2c(O)cc(O[C@@H]3O[C@H](CO)[C@@H](O)[C@H](O)[C@@H]3O[C@@H]3O[C@@H](C)[C@H](O)[C@@H](O)[C@@H]3O)cc2O)cc1O` | 0.0166 | cytotoxic, full curve, poor fit |
| 9 | `C=C(C)[C@@H]1CC[C@]2(C(=O)O)CC[C@]3(C)[C@H](CC[C@@H]4[C@@]5(C)CC[C@H](O)C(C)(C)[C@@H]5CC[C@]43C)[C@@H]12` | 5.258 | cytotoxic, full curve, poor fit |
| 10 | `COc1cccc(-c2ccc(NC(=O)C3=C(C(=O)O)CCC3)c(F)c2)c1` | 8.333 | cytotoxic, partial curve, poor fit |
| 11 | `Cc1cn2cc(C(=O)N(C)CCO)cc(N[C@@H]3CCOc4cccc(C)c43)c2n1` | 6.619 | rising, partial curve, poor fit |
| 12 | `NC(=O)c1ccc(-c2nc(-c3ccc4c(c3)OCCO4)c(-c3ccccn3)[nH]2)cc1` | 20.93 | cytotoxic, partial curve, poor fit |
| 13 | `CC(C)C(=O)Nc1ccc([N+](=O)[O-])c(C(F)(F)F)c1` | 33.17 | cytotoxic, single point |
| 14 | `O=C(O)CCCCC(CCSCc1ccccc1)SCc1ccccc1` (stereo not drawn) | 0.0105 | rising, full curve, poor fit |
| 15 | `Nc1cccc(-c2cc3c(Oc4cccc(O)c4)ncnc3[nH]2)c1` | 11.77 | cytotoxic, partial curve, poor fit |
| 16 | `C[C@]12CC[C@H](O)CC1=CC[C@H]1[C@H]3CCC(=O)[C@@]3(C)CC[C@@H]12` | 4.176 | cytotoxic, full curve, poor fit |
| 17 | `CCN(CC)CCCCNc1ncc2c(n1)N(C)C(=O)N(c1c(Cl)c(OC)cc(OC)c1Cl)C2` | 1.482 | cytotoxic, full curve, poor fit |
| 18 | `CNC(=O)CN1CCC(Oc2cc3c(Nc4cccc(Cl)c4F)ncnc3cc2OC)CC1` | 0.2348 | cytotoxic, full curve, poor fit |
| 19 | `CC[C@@H](C)[C@H](NC(=O)[C@H](CC1CCCCC1)NC(=O)c1ccno1)C(=O)N1CCC2(CCc3ccccc32)CC1` | 16.63 | cytotoxic, partial curve |
| 20 | `O=C(Nc1ccc(F)c(C(F)(F)F)c1)Nc1nnc(-c2ccncc2)s1` | 0.3317 | cytotoxic, full curve, poor fit |

Repeated from the top, 2 entries:

- CN(C1CCc2c(c3ccccc3n2CC(=O)O)C1)S(=O)(=O)c1ccc(F)cc1 (stereo not drawn) | potency 23.48 µM (cytotoxic, single point)
- CN1[C@@H]2CCC[C@@H]1CC(NC(=O)c1nn(C)c3ccccc13)C2 (stereo partly drawn) | potency 3.317 µM (cytotoxic, full curve, poor fit)